PubChem BioAssay AID1259405, NCATS – 2018
Screen: 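Silenced genes that increase secreted GFP made by CHO cells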 (primary screen). System: Chinese hamster CHO-K1 ovary cells with stable secreted eGFP expression. Knock-down reagent: single siRNA against mouse genes, 0.8 pmol siRNA per well (2 µl of 400 nM stock). Time to read-out: 3 days. Read-out: 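Percent of the per-plate non-targeting control median for intracellular GFP per well by laser scanning cytometry and for cell viability by ATP luminescence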. Direction: GFP, % of control: higher = more GFP per well, higher productivity; viability (ATP), % of control: higher = more viable cells (more ATP). Hit rule: 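Called active when intracellular GFP, relative to negative control, is at or above 120%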.
In all, the deposit lists about 50,000 reagents; below is a part drawn at random. About 4,000 of all reagents (8%) count as active. 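Mouse siRNA library applied to hamster cells; one well for each siRNA.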 Entries without a mark were called inactive. The numbers tell different reagents against one gene apart. Reagent sequences are not shown.

The first 2 entries, to show the layout:
Target gene	siRNA no.	GFP, % of control	viability (ATP), % of control
Pkdrej (GeneID 18766)	1	116	110
Pkdrej (GeneID 18766)	2	58.5	59.8

Results, from the first entry:
Target gene	siRNA no.	GFP, % of control	viability (ATP), % of control
Pkdrej (GeneID 18766)	1	116	110
Pkdrej (GeneID 18766)	2	58.5	59.8
Pkdrej (GeneID 18766)	3	74	79.6
Hoxc5 (GeneID 15424)	1	79.1	78.6
Hoxc5 (GeneID 15424)	2	78.7	64.7
Hoxc5 (GeneID 15424)	3	91.5	104
E230025N22Rik (GeneID 240216)	1	76.1	85.4
E230025N22Rik (GeneID 240216)	2	80.7	95.3
E230025N22Rik (GeneID 240216)	3	54.7	40.5
Adamts12 (GeneID 239337)	1	44	54.6
Adamts12 (GeneID 239337)	2	77	71.6
Adamts12 (GeneID 239337)	3	80.4	76.4
Pura (GeneID 19290)	1	133 (active)	81.9
Pura (GeneID 19290)	2	83.5	93
Mknk1 (GeneID 17346)	1	87.6	82.5
Fbxw7 (GeneID 50754)	1	72.3	67.2
Fbxw7 (GeneID 50754)	2	32.9	20.1
Fbxw7 (GeneID 50754)	3	90.5	66.1
Clcn1 (GeneID 12723)	1	94.3	129
Clcn1 (GeneID 12723)	2	195 (active)	75.9
Clcn1 (GeneID 12723)	3	43.2	54.1
Mtfr2 (GeneID 71804)	1	93.6	85.4
Mtfr2 (GeneID 71804)	2	50	74.9
Mtfr2 (GeneID 71804)	3	44.9	71.1
Lix1 (GeneID 66643)	1	70.4	93.1
Lix1 (GeneID 66643)	2	54.9	69.4
Lix1 (GeneID 66643)	3	55.6	38
Tex24 (GeneID 541463)	1	97.1	110
Tex24 (GeneID 541463)	2	73.3	74.5
Tex24 (GeneID 541463)	3	76	73.5
Cfl2 (GeneID 12632)	1	85.4	89.8
Cfl2 (GeneID 12632)	2	90.3	79
Ctsg (GeneID 13035)	1	96.2	110
Ctsg (GeneID 13035)	2	62	32.4
Ctsg (GeneID 13035)	3	99.5	82.5
Tmc5 (GeneID 74424)	1	134 (active)	93.2
Tmc5 (GeneID 74424)	2	61.5	62.9
Tmc5 (GeneID 74424)	3	45.4	73.2
Gprin3 (GeneID 243385)	1	109	61.5
Gprin3 (GeneID 243385)	2	78.1	91.8
Gprin3 (GeneID 243385)	3	132 (active)	124
Cd72 (GeneID 12517)	1	65	71.7
Cd72 (GeneID 12517)	2	65.1	78.5
Cd72 (GeneID 12517)	3	51.4	101
Ccn5 (GeneID 22403)	1	61.2	77
Ccn5 (GeneID 22403)	2	117	92.2
Ccn5 (GeneID 22403)	3	178 (active)	130
Hs3st3a1 (GeneID 15478)	1	124 (active)	104
Hs3st3a1 (GeneID 15478)	2	164 (active)	113
Hs3st3a1 (GeneID 15478)	3	99.9	101
Gphr (GeneID 67549)	1	83.2	89.6
Gphr (GeneID 67549)	2	101	66.5
Gphr (GeneID 67549)	3	72.3	80
Or5d16 (GeneID 258636)	1	87.2	121
Or5d16 (GeneID 258636)	2	57.3	66
Or5d16 (GeneID 258636)	3	37	42.3
Asic3 (GeneID 171209)	1	98.9	143
Asic3 (GeneID 171209)	2	80.6	124
Asic3 (GeneID 171209)	3	76.9	63.6
Tmem229a (GeneID 319832)	1	90.1	81
Tmem229a (GeneID 319832)	2	113	112
Tmem229a (GeneID 319832)	3	108	131
Rilpl2 (GeneID 80291)	1	87.2	69.1
Rilpl2 (GeneID 80291)	2	117	91.7
Rilpl2 (GeneID 80291)	3	72	57.8
Rhobtb2 (GeneID 246710)	1	77.3	70.8
Rhobtb2 (GeneID 246710)	2	73.7	80.6
Rhobtb2 (GeneID 246710)	3	53.8	81.9
Nipsnap2 (GeneID 14467)	1	52	59.8
Nipsnap2 (GeneID 14467)	2	49.2	37.3
Nipsnap2 (GeneID 14467)	3	83.5	73.8
Zmym5 (GeneID 219105)	1	76.2	91.8
Zmym5 (GeneID 219105)	2	38.7	33.6
Zmym5 (GeneID 219105)	3	104	104
Or4c111 (GeneID 258895)	1	58.2	73.7
Or4c111 (GeneID 258895)	2	59.8	58.3
Or4c111 (GeneID 258895)	3	58.1	92.8
Pbx2 (GeneID 18515)	1	51.4	76.7
Pbx2 (GeneID 18515)	2	67	87.9
Pbx2 (GeneID 18515)	3	99.8	118
Or8u10 (GeneID 259151)	1	79.5	76.1
Or8u10 (GeneID 259151)	2	68.7	79
Or8u10 (GeneID 259151)	3	128 (active)	59.8
Camk2b (GeneID 12323)	1	149 (active)	76
Camk2b (GeneID 12323)	2	78.5	59
Camk2b (GeneID 12323)	3	63.9	62.9
